Data taken from the supplement of paper PMC4604168 (melanoma cell lines).
Some of the results follow. Single values are uncertain, as repeats are few or missing.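 Imaging used 1,536-well plates; nuclei positive for cleaved PARP by antibody were divided by total DNA-stained nuclei to yield the apoptosis fraction. Doses for screening kept most cells viable, and cell lines differ markedly in resting and induced cleaved-PARP levels.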

How the values were obtained:
Experiment in all cases: cleaved PARP positive nuclei fraction relative to DMSO control; melanoma cells; higher = more apoptosis
Conditions in all cases: library dose: low library concentration; 72 h
[1] = test system: MZ2-MEL
[2] = test system: MeWo
[3] = test system: RPMI7951
[4] = test system: RVH-421
[5] = test system: SkMel28
[6] = test system: SkMel2
[7] = test system: SkMel30
[8] = test system: SkMel5
[9] = test system: UACC257
[10] = test system: UACC62
[11] = test system: WM115
[12] = test system: WM1716
[13] = test system: WM1745
[14] = test system: WM3526
[15] = test system: WM3619
[16] = test system: WM451Lu

Compound | cleaved PARP positive nuclei fraction [1] | cleaved PARP positive nuclei fraction [2] | cleaved PARP positive nuclei fraction [3] | cleaved PARP positive nuclei fraction [4] | cleaved PARP positive nuclei fraction [5] | cleaved PARP positive nuclei fraction [6] | cleaved PARP positive nuclei fraction [7] | cleaved PARP positive nuclei fraction [8] | cleaved PARP positive nuclei fraction [9] | cleaved PARP positive nuclei fraction [10] | cleaved PARP positive nuclei fraction [11] | cleaved PARP positive nuclei fraction [12] | cleaved PARP positive nuclei fraction [13] | cleaved PARP positive nuclei fraction [14] | cleaved PARP positive nuclei fraction [15] | cleaved PARP positive nuclei fraction [16]
Cc1nc(Nc2ncc(C(=O)Nc3c(C)cccc3Cl)s2)cc(N2CCN(CCO)CC2)n1 [dasatanib] + O=C(O)c1ccc(-c2c[nH]c3ncc(-c4ccccc4)cc23)cc1C1CCCC1 [GSK650394] (first compound 0.004 µM, partner dose 0.16 µM) | 327% | 118% | 134% | 41.2% | 73.4% | 93.3% | 71.3% | 92.3% | 78.4% | 92.3% | 89.2% | 208% | 145% | 58.1% | 107% | 29.5%
CO[C@@H]1[C@H](N(C)C(=O)c2ccccc2)C[C@H]2O[C@]1(C)n1c3ccccc3c3c4c(c5c6ccccc6n2c5c31)C(=O)NC4 [Midostaurin] + Cc1cc(N2CCOCC2)cc2[nH]c(-c3c(NC[C@@H](O)c4cccc(Cl)c4)cc[nH]c3=O)nc12 [BMS536924] (first compound 0.08 µM, partner dose 0.2 µM) | 143% | 164% | 74.6% | 73.3% | 66.6% | 132% | 64.6% | 65.6% | 133% | 71.2% | 64.2% | 181% | 114% | 16.1% | 96.1% | 25.1%
CO[C@@H]1[C@H](N(C)C(=O)c2ccccc2)C[C@H]2O[C@]1(C)n1c3ccccc3c3c4c(c5c6ccccc6n2c5c31)C(=O)NC4 [Midostaurin] + C[C@@H]1CCN(C(=O)CC#N)C[C@@H]1N(C)c1ncnc2[nH]ccc12 [CP690550] (first compound 0.08 µM, partner dose 1 µM) | 124% | 41.6% | 338% | 116% | 74.9% | 234% | 67.9% | 157% | 130% | 240% | 130% | 115% | 113% | 122% | 129% | 131%
Cc1ccc(NC(=O)c2cccc(N(C)C)c2)cc1NC(=O)c1ccc(O)cc1 + NCC(=O)Nc1ccc(-n2nc(C(F)(F)F)cc2-c2ccc3c(ccc4ccccc43)c2)cc1 [OSU03012] (first compound 2 µM, partner dose 1 µM) | 155% | 633% | 41.5% | 112% | 47.6% | 112% | 492% | 56.3% | 382% | 248% | 146% | 141% | 119% | 47.6% | 99.4% | 114%
CC1(C)NC(=O)N(c2ccc([N+](=O)[O-])c(C(F)(F)F)c2)C1=O [nilutamide] + C[C@@H]1CCN(C(=O)CC#N)C[C@@H]1N(C)c1ncnc2[nH]ccc12 [CP690550] (first compound 1 µM, partner dose 1 µM) | 175% | 89.8% | 38.1% | 68.5% | 83.8% | 218% | 90.7% | 55.7% | 280% | 103% | 97.8% | 52.2% | 96.8% | 32.8% | 84.5% | 878%
C[C@@H]1CCN(C(=O)CC#N)C[C@@H]1N(C)c1ncnc2[nH]ccc12 + Cn1cncc1[C@@](N)(c1ccc(Cl)cc1)c1ccc2c(c1)c(-c1cccc(Cl)c1)cc(=O)n2C [tipifarnib] (first compound 1 µM, partner dose 0.01 µM) | 54.4% | 52.2% | 50.3% | 91.1% | 108% | 195% | 61% | 45.9% | 49% | 201% | 42.7% | 68.5% | 102% | 110% | 125% | 174%
OCc1c[nH]c2ccccc12 [Indole-3-carbinol] + COc1cc(Nc2ncc(F)c(Nc3ccc4c(n3)NC(=O)C(C)(C)O4)n2)cc(OC)c1OC [Tamatinib] (first compound 0.8 µM, partner dose 0.4 µM) | 59.6% | 168% | 167% | 319% | 128% | 120% | 75.7% | 100% | 50.6% | 83.1% | 145% | 97.5% | 131% | 107% | 98.8% | 125%
O=C(CCCCCCC(=O)Nc1ccccc1)NO [vorinostat] + CC(C)(C)c1cnc(CSc2cnc(NC(=O)C3CCNCC3)s2)o1 [SNS-032] (first compound 0.08 µM, partner dose 0.01 µM) | 135% | 71.5% | 193% | 20.1% | 69.3% | 44.1% | 62.7% | 65.7% | 201% | 97.8% | 72.2% | 113% | 73.2% | 42.3% | 82.7% | 53.9%
C#Cc1cccc(Nc2ncnc3cc(OCCOC)c(OCCOC)cc23)c1 [erlotinib] + CN(C)S(=O)(=O)c1ccc2c(c1)/C(=C/c1cc3c([nH]1)CCCC3)C(=O)N2 [SU6656] (first compound 0.8 µM, partner dose 0.4 µM) | 131% | 158% | 46.6% | 324% | 125% | 98.4% | 209% | 93% | 125% | 68.1% | 204% | 85.9% | 99.1% | 82.2% | 109% | 300%
OCCn1cc(-c2cnc3nnn(Cc4ccc5ncccc5c4)c3n2)cn1 + Cn1cncc1[C@@](N)(c1ccc(Cl)cc1)c1ccc2c(c1)c(-c1cccc(Cl)c1)cc(=O)n2C [tipifarnib] (first compound 1 µM, partner dose 0.01 µM) | 148% | 40.6% | 98.6% | 87.4% | 53.1% | 201% | 55.6% | 30.3% | 147% | 108% | 35.3% | 87.7% | 102% | 61.3% | 117% | 163%

Single records, as listed above. Values in the order: cleaved PARP positive nuclei fraction [1]	cleaved PARP positive nuclei fraction [2]	cleaved PARP positive nuclei fraction [3]	cleaved PARP positive nuclei fraction [4]	cleaved PARP positive nuclei fraction [5]	cleaved PARP positive nuclei fraction [6]	cleaved PARP positive nuclei fraction [7]	cleaved PARP positive nuclei fraction [8]	cleaved PARP positive nuclei fraction [9]	cleaved PARP positive nuclei fraction [10]	cleaved PARP positive nuclei fraction [11]	cleaved PARP positive nuclei fraction [12]	cleaved PARP positive nuclei fraction [13]	cleaved PARP positive nuclei fraction [14]	cleaved PARP positive nuclei fraction [15]	cleaved PARP positive nuclei fraction [16]
C#Cc1cccc(Nc2ncnc3cc(OCCOC)c(OCCOC)cc23)c1 [erlotinib] + CN(C)S(=O)(=O)c1ccc2c(c1)/C(=C/c1cc3c([nH]1)CCCC3)C(=O)N2 [SU6656] (first compound 0.8 µM, partner dose 0.4 µM) in the list: 131%	158%	46.6%	324%	125%	98.4%	209%	93%	125%	68.1%	204%	85.9%	99.1%	82.2%	109%	300%
Cc1nc(Nc2ncc(C(=O)Nc3c(C)cccc3Cl)s2)cc(N2CCN(CCO)CC2)n1 [dasatanib] + O=C(O)c1ccc(-c2c[nH]c3ncc(-c4ccccc4)cc23)cc1C1CCCC1 [GSK650394] (first compound 0.004 µM, partner dose 0.16 µM) in the list: 327%	118%	134%	41.2%	73.4%	93.3%	71.3%	92.3%	78.4%	92.3%	89.2%	208%	145%	58.1%	107%	29.5%
